Taken from: PubChem BioAssay AID1259299 (Sanger Institute, 2017)

- Test: 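Kinases and colorectal mutated genes needed by colorectal cancer cells, with or without drugs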 (primary screen)
- Cells: human CAR1 colorectal cancer cells
- Reagent: siRNA pool against human genes
- Treatment: anchor drug BYL719 1 µM, cetuximab 5 µg/ml or trametinib 10 nM, or DMSO vehicle alone; exposure length not given
- Detection: 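Mean replicate viability versus non-targeting controls, turned into robust z-scores, plus drug synergy scores for BYL719, cetuximab and trametinib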
- Reading the numbers: viability robust z-score, knock-down alone and viability, knock-down alone (DMSO): higher = more viable cells; synergy score with BYL719 and synergy score with cetuximab and synergy score with trametinib: higher = stronger synergy with drug (synthetic lethal)
- Active means: 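Essential when viability robust z-score with knock-down alone (DMSO) is below -3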
- Calls: active = essential (knock-down alone); inactive = no change
Shown is one part, drawn at random, of 794 reagents. 9 of all reagents (1.1%) were called active. 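Calls rest on knock-down alone; synergy scores play no part in calls, and no gene passed the synergy cut.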 Viability is capped at 1. Not given: the amount of reagent, the time to read-out.

no.	gene	viability robust z-score, knock-down alone	viability, knock-down alone (DMSO) (fraction of control)	synergy score with BYL719	synergy score with cetuximab	synergy score with trametinib	outcome
1	MYLK4	0.789	1	-0.061	0.0465	-0.073	inactive
2	NADK	0.174	0.943	-0.0939	-0.0453	-0.092	inactive
3	TSSK4	0.789	1	-0.0969	-0.045	-0.127	inactive
4	ULK4	-0.209	0.908	-0.127	-0.0729	-0.0145	inactive
5	MINK1	0.789	1	-0.0614	0.141	-0.0592	inactive
6	PRKX	0.789	1	-0.182	-0.073	-0.203	inactive
7	CDK7	0.646	0.987	-0.216	-0.0853	-0.15	inactive
8	MAPKAPK5	-1.16	0.82	-0.251	-0.134	-0.115	inactive
9	CDK1	0.751	0.997	-0.14	-0.0763	-0.166	inactive
10	FGFR2	0.789	1	-0.0286	0.0299	0.0801	inactive
11	BCR	-1.59	0.78	-0.189	-0.124	0.0249	inactive
12	ATR	-0.457	0.885	-0.154	-0.0299	-0.00159	inactive
13	PHKG2	0.789	1	-0.106	0.0123	-0.103	inactive
14	CDK12	0.636	0.986	-0.0678	-0.0862	-0.111	inactive
15	JAK3	-0.225	0.906	-0.131	-0.127	-0.134	inactive
16	CSNK1A1	0.111	0.937	-0.0581	-0.0587	0.0117	inactive
17	MAPK14	0.628	0.985	-0.0589	-0.0868	-0.0168	inactive
18	EIF2AK1	-0.249	0.904	-0.21	-0.0873	-0.196	inactive
19	MAP3K20	0.582	0.981	-0.221	-0.0784	-0.0641	inactive
20	AKT1	0.789	1	-0.11	0.037	-0.018	inactive
21	SKAP1	0.656	0.988	-0.166	-0.0844	-0.22	inactive

2 of these entries in another layout.
JAK3 → viability robust z-score, knock-down alone: -0.225; viability, knock-down alone (DMSO) (fraction of control): 0.906; synergy score with BYL719: -0.131; synergy score with cetuximab: -0.127; synergy score with trametinib: -0.134; outcome: inactive
CSNK1A1 → viability robust z-score, knock-down alone: 0.111; viability, knock-down alone (DMSO) (fraction of control): 0.937; synergy score with BYL719: -0.0581; synergy score with cetuximab: -0.0587; synergy score with trametinib: 0.0117; outcome: inactive

Further records:
no.	gene	viability robust z-score, knock-down alone	viability, knock-down alone (DMSO) (fraction of control)	synergy score with BYL719	synergy score with cetuximab	synergy score with trametinib	outcome
22	GK	0.789	1	-0.13	-0.073	-0.0661	inactive
23	PFKFB3	-0.466	0.884	-0.061	-0.0847	0.089	inactive
24	PDK3	0.789	1	0.0526	0.0939	-0.0745	inactive
25	NRAS	0.284	0.953	-0.119	-0.0808	-0.112	inactive
26	PCK2	-0.433	0.887	-0.257	-0.178	-0.0718	inactive
27	ROS1	-0.498	0.881	-0.05	-0.0612	-0.0654	inactive
28	HIPK2	0.219	0.947	-0.115	-0.0954	-0.0357	inactive
29	TNK1	0.789	1	-0.00281	-0.073	-0.0964	inactive
30	NME5	0.789	1	-0.0659	-0.0226	0.00153	inactive
31	MYLK3	-0.236	0.905	-0.0428	-0.0377	-0.129	inactive
32	CHUK	0.407	0.965	-0.158	-0.0216	-0.0982	inactive
